# Publication PMC7819943, “Rice protein-binding microarrays: a tool to detect cis-acting elements near promoter regions in rice”
# Amino acid sequences for entries named in this document (tags omitted).
# UniProt Q0JBA9, entry or part of it: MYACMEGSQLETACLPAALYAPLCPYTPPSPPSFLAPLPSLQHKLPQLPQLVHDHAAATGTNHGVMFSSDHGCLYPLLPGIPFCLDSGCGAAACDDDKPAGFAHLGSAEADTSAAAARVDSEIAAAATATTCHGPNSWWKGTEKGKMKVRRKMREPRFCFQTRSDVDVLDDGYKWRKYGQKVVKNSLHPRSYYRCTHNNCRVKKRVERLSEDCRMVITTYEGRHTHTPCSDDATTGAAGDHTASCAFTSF
# This is one part of the list.
# Target: OsWRKY34 (Oryza sativa, UniProt Q0JBA9 1-250)
# Experiment: protein-binding microarray (RPBM); PBS, 2% BSA, 51.3 ng/ul salmon testes DNA, 50 uM zinc acetate, 200 nM TF, 25 C, 1 h; high values mean tight binding
# Settings: protein: recombinant; tags: N-terminal polyhistidine and DsRed monomer fusion (pET32a); label: CyDye5-dUTP incorporated in the synthesized complementary strand; 3' TTTTT single-stranded linker to array surface; dsDNA, one strand shown
# Procedure, shortened: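 Binding signal here means per-feature fluorescence intensity in arbitrary units. The values were read on an Axon 4000B scanner after a custom Agilent array, double-stranded by primer extension with Cy5-dUTP, was incubated with 200 nM protein at 25 °C for 1 h in PBS with 2% BSA, salmon testes DNA and 50 µM zinc acetate, then washed. The proteins were transcription factors with an N-terminal polyhistidine tag and DsRed, expressed in E. coli BL21-CodonPlus and purified on Ni–NTA.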
row,Sequence,binding signal
1,AGCTTGGTGCGTCATGGTCCCACTGTTCATTACTTTCCTTCGGAGTCACCTAGTGCAG,9080 fluorescence intensity (a.u.)
2,TGGCTTCTTTGATTAGGTATTTATTCGACGTGTGATATTGCGGAGTCACCTAGTGCAG,9200 fluorescence intensity (a.u.)
3,GTATGGTTGACTGAATTGTTTGACTTATCTTTGGCATTGACGGAGTCACCTAGTGCAG,14400 fluorescence intensity (a.u.)
4,TGTTCCTGACCTGTTAGCATGTTGCTTTTGCTGGAGTAGTCGGAGTCACCTAGTGCAG,9040 fluorescence intensity (a.u.)
5,CCACCACCGCACAGCACCTCTCAGCTCTCACCCGCGGGGACGGAGTCACCTAGTGCAG,8660 fluorescence intensity (a.u.)
6,GTGTGTGGCTGACAGGTGGGCCCCGATGCATCTCCGAAAACGGAGTCACCTAGTGCAG,8970 fluorescence intensity (a.u.)
7,GGGGACAGGCATAGGGGACATCCTTCGAGAGACACGAAAACGGAGTCACCTAGTGCAG,8300 fluorescence intensity (a.u.)
8,TCACTCACCCACACAGCCACACTCGCTGTGTTTCTCCTCTCGGAGTCACCTAGTGCAG,8460 fluorescence intensity (a.u.)
9,TGCGCTGCTCGGGAGGGAGGGAGGGTTACTAGGAGGTTGCCGGAGTCACCTAGTGCAG,14600 fluorescence intensity (a.u.)
10,CCTCGCCTCCGCCTCTGCCGCCGCCGCCACCGCCGCCGCCCGGAGTCACCTAGTGCAG,10800 fluorescence intensity (a.u.)
11,ATCGTCCCCATCGACTGTCGTCGCTGTCAATCGGAGCCACCGGAGTCACCTAGTGCAG,8480 fluorescence intensity (a.u.)
12,TCCCTATTTTTAATTCTGAATTTAAGTTATTTCCTAATTACGGAGTCACCTAGTGCAG,9700 fluorescence intensity (a.u.)
13,TGTGTCATATCCGGGGTTGGTTTTTTATGGGATGGAGGAACGGAGTCACCTAGTGCAG,12000 fluorescence intensity (a.u.)
14,TCTTTCTCCTACTCCTCCTGTGTGATGGGCTGGGCTGAGCCGGAGTCACCTAGTGCAG,8540 fluorescence intensity (a.u.)
15,TCTCGCGCGCGACGCCGCCGCCGCCTCGCCGCCGGCGATGCGGAGTCACCTAGTGCAG,8020 fluorescence intensity (a.u.)
16,ACTGGACATTGTCGCCGGTGCCTCGCTCCTGTCGGCGCCCCGGAGTCACCTAGTGCAG,10400 fluorescence intensity (a.u.)
17,GGCCTTGGTAGCTGACATGTGGTCCCAGCCGGCTATCCACCGGAGTCACCTAGTGCAG,9000 fluorescence intensity (a.u.)
18,ACCAGACCGCATTCTCTTTTTTTTTGCTATTATTTTCAAACGGAGTCACCTAGTGCAG,11000 fluorescence intensity (a.u.)
19,CCGTTTGATTGTTTGTCTGGCGTTAATTTTCGCGAACTGCCGGAGTCACCTAGTGCAG,13600 fluorescence intensity (a.u.)
20,TCCAAACTTCCAACTTTTCCTTCACATTATTTCAATTTCACGGAGTCACCTAGTGCAG,8460 fluorescence intensity (a.u.)
21,TTTTTCTGTCTGTTTTATGTACATGTATATGTTTTTTCTTCGGAGTCACCTAGTGCAG,12100 fluorescence intensity (a.u.)
22,ACGATTGCTGACCAAGTGACCAGTGTCCGTTTTCTCCGACCGGAGTCACCTAGTGCAG,9630 fluorescence intensity (a.u.)
23,CATGTCTTTTTTATAGGGCTTGCGTCGTCTTGTCTTGCCTCGGAGTCACCTAGTGCAG,8670 fluorescence intensity (a.u.)
24,CATTTTTTCCCCATGGATTTCAGTTGTCTTCTATGATTTGCGGAGTCACCTAGTGCAG,8100 fluorescence intensity (a.u.)
25,CACCGGCGCGCATTTTTTCTGGGGATAAGGTGGTTAGACTCGGAGTCACCTAGTGCAG,8890 fluorescence intensity (a.u.)
26,ATCACTAGCTCTCTGTTGCATCATCATTAAGTCATGGTGACGGAGTCACCTAGTGCAG,8060 fluorescence intensity (a.u.)
27,ACCCCGCCGGCCTCCTCGTCCTCGCCGTCGCCGCGCGCGTCGGAGTCACCTAGTGCAG,14100 fluorescence intensity (a.u.)

row,Sequence,binding signal
1,GGTAGTAGTTTGGTATTATGGGATGGATAAAATAACCACCCGGAGTCACCTAGTGCAG,8540 fluorescence intensity (a.u.)
2,AAGTTGCTTATTTTCTTTGGTTGGTGTCTTTGTGTCGTCTCGGAGTCACCTAGTGCAG,8400 fluorescence intensity (a.u.)
3,CCACCTCCCCTCCTTCGCGCGTCGTCCGCCAACTGCAAAACGGAGTCACCTAGTGCAG,8180 fluorescence intensity (a.u.)
4,TTTTGTACCGGCGTCTGTTCTTTTGTTTTGCTTTTGCTGTCGGAGTCACCTAGTGCAG,10700 fluorescence intensity (a.u.)
5,CTTTCTTATACCTGACTGCATTTTTTTCCCTTCATTCTTTCGGAGTCACCTAGTGCAG,10600 fluorescence intensity (a.u.)
6,GTGGTTGATTCATTCGATATTGTTTTCACTTTCCTCTTCACGGAGTCACCTAGTGCAG,9920 fluorescence intensity (a.u.)
7,CTTTCTCTCTTCATACTCAACTTTTTCATATATTTTTTTCCGGAGTCACCTAGTGCAG,10400 fluorescence intensity (a.u.)
8,CCGTTACATTGTTCCAATTTTAATTAAACTTCCAATTTTACGGAGTCACCTAGTGCAG,8470 fluorescence intensity (a.u.)
9,GGATGCTCTTGTGTTCTTGTTGTTGATTTGTATTGTGGATCGGAGTCACCTAGTGCAG,8240 fluorescence intensity (a.u.)
10,CGGCGGCGGCGACCGCGGGTAGGGTGGGTGGCGCGGGCCGCGGAGTCACCTAGTGCAG,9330 fluorescence intensity (a.u.)
11,AGGGAGGAGGAGAGAGGCTGTGTCGGGTTTGTGTTGTGTTCGGAGTCACCTAGTGCAG,10500 fluorescence intensity (a.u.)
12,AGCCGCACATCATCTCGCTAACGTCATCCTTTGTGCCGAACGGAGTCACCTAGTGCAG,9390 fluorescence intensity (a.u.)
13,CGCATTTCTTCCTGTGTTAAGAACTTGTCACATTACTAACCGGAGTCACCTAGTGCAG,9170 fluorescence intensity (a.u.)
14,TGGGTGGGAGCTGGTGCTGTGGGCGAAATCCTAGCTCGATCGGAGTCACCTAGTGCAG,9220 fluorescence intensity (a.u.)
15,CTACTGCCTCTACTTGTGCACTCACAGACAGCTTCATTAGCGGAGTCACCTAGTGCAG,8240 fluorescence intensity (a.u.)
16,CTCTGTTTTACACTACCGACCATTTCTATTTCTGGCCCTTCGGAGTCACCTAGTGCAG,9460 fluorescence intensity (a.u.)
17,CTTGCATCCGCGCGCGCTTCTCCGCCTACCGCCGGCCTCCCGGAGTCACCTAGTGCAG,10100 fluorescence intensity (a.u.)
18,CTAAATGTTTGACACCGTTGACTTTTTTAAATATGTTTGACGGAGTCACCTAGTGCAG,23300 fluorescence intensity (a.u.)
19,ATATATACTTTGGTCAAATTATCACAAAACTACATATTTACGGAGTCACCTAGTGCAG,8250 fluorescence intensity (a.u.)
20,GGCAAAAGAATTTCCACACCTATGATAGCCTTGTTTTGTTCGGAGTCACCTAGTGCAG,8110 fluorescence intensity (a.u.)
21,AAAACGTATCTTGTCTTTATCACTTTATCGTGAGTTTTTTCGGAGTCACCTAGTGCAG,12700 fluorescence intensity (a.u.)
22,TTTTTGTCTTTGCCATCTTGTTCTGTTTGGTTTTCACATGCGGAGTCACCTAGTGCAG,8810 fluorescence intensity (a.u.)
23,ATACCCTCACGTATACGGTTGGTTCCCTTATACGCCGTTACGGAGTCACCTAGTGCAG,8870 fluorescence intensity (a.u.)
24,ACTAGTTCATAATGTCGGGACACTAATGTTGTATTCGGTTCGGAGTCACCTAGTGCAG,8230 fluorescence intensity (a.u.)
25,GACGCCACCGCCGCCCCACCGCCACCGCCATCGATTCTTGCGGAGTCACCTAGTGCAG,8830 fluorescence intensity (a.u.)
26,ATCATCCAACCAACAGCTGAAGCCTAAACACACAACCGAACGGAGTCACCTAGTGCAG,8600 fluorescence intensity (a.u.)
27,TTTTCACGTTGCAATATATTCTTTCCGTCCAACAATATAACGGAGTCACCTAGTGCAG,9320 fluorescence intensity (a.u.)

# Quoted at random: 3 records from the list.
row,Sequence,binding signal
3,GTATGGTTGACTGAATTGTTTGACTTATCTTTGGCATTGACGGAGTCACCTAGTGCAG,14400 fluorescence intensity (a.u.)
6,GTGTGTGGCTGACAGGTGGGCCCCGATGCATCTCCGAAAACGGAGTCACCTAGTGCAG,8970 fluorescence intensity (a.u.)
24,CATTTTTTCCCCATGGATTTCAGTTGTCTTCTATGATTTGCGGAGTCACCTAGTGCAG,8100 fluorescence intensity (a.u.)

# A second format for part of the listing above:
row	Sequence	binding signal
10	CGGCGGCGGCGACCGCGGGTAGGGTGGGTGGCGCGGGCCGCGGAGTCACCTAGTGCAG	9330 fluorescence intensity (a.u.)
11	AGGGAGGAGGAGAGAGGCTGTGTCGGGTTTGTGTTGTGTTCGGAGTCACCTAGTGCAG	10500 fluorescence intensity (a.u.)
